# Measured values reported in patent US12403161B2, “Compositions for drug delivery and methods of use thereof” (Stellular Bio, Inc., priority 2018, dated 2025).
# Columns and labels:
# [1] = tested on: human washed platelets; assay: Small-molecule loading of human washed platelets by passive diffusion; format: cell-based; details: 100 μM
# Description: 100 μM of Doxorubicin was used with a preparation of 1e7 platelets in 1 ml of buffer and incubated at ambient temperature for 30, 120, 240, and 1440 minutes under constant agitation on an orbital shaker in a dialysis cassette (Thermofisher #88400). […] A kinetic study was employed to understand the minimum and maximum amount of time necessary for doxorubicin encapsulation in the washed platelets.
# [2] = tested on: human iPSC-derived platelets; assay: Passive loading of Ipilimumab into human iPSC-derived platelets; format: cell-based
# [3] = tested on: CD34+ mobilized peripheral blood-derived platelets; assay: Passive loading of Cy5.5 Ipilimumab into CD34+ mobilized peripheral blood-derived platelets; format: cell-based, human
# [4] = tested on: human iPSC-derived platelets; assay: Covalent conjugation of Ipilimumab to human iPSC-derived platelets; format: cell-based
# [5] = tested on: donor-derived, human washed platelets; assay: Passive loading of antibody into donor-derived, human washed platelets (flow cytometry, immunofluorescence); format: cell-based
# [6] = tested on: iPSC-derived megakaryocytes and platelets; assay: Passive loading of Dylight 488-labeled Atezolizumab into iPSC-derived megakaryocytes; format: cell-based, human
molecule,measurement,setting,value
"COc1cccc2c1C(=O)c1c(O)c3c(c(O)c1C2=O)C[C@@](O)(C(=O)CO)C[C@@H]3O[C@H]1C[C@H](N)[C@H](O)[C@H](C)O1 [doxorubicin, Doxorubicin hydrochloride]",doxorubicin signal after 1440 minutes,[1],signal retained
Ipilimumab,"localization of Ipilimumab (immunofluorescence, CD61 and PF4)","[2]; 100 μg/ml, not conjugated to Cy5.5",on the cell surface and within select alpha granules
same,dose dependence of Ipilimumab encapsulation (flow cytometry),"[2]; 1, 10, 30, 60 μg per 1e6 platelets in 100 microliter, 37° C. 1 hour, washed",dose-dependent increase in Ipilimumab encapsulation
same,"drug signal localization (immunofluorescence, PF4 and CD61)",[3],punctate within the cell
same,dose dependence of Cy5.5 conjugated Ipilimumab bound to platelets,[3]; flow cytometry histogram,dose-dependent increase
same,input ratio sufficient to see a maximal signal by flow cytometry,[3]; pg of Ipilimumab per platelet in the reaction vessel,100-300 pg/plt
same,maximal signal at varying concentrations,[3]; up to 600 μg/ml Ipilimumab,without a maximal signal established
same,localization of conjugated Ipilimumab (CD61 and PF4 staining),[4],conjugated mostly on the cell surface
atezolizumab,localization of antibody in platelets (confocal microscopy),"[5]; AlexaFluor 488 anti-human IgG, CD61-APC",sub-cellular localization within the platelets
same,dose dependence of antibody uptake (fluorescence intensity by flow cytometry),"[5]; fluorophore-labeled antibody, dose titer, co-incubation with platelet suspension",dose-dependent escalation in antibody loading
same,uptake of labeled anti-PD-L1 antibody by platelets,[5]; human donor platelets,up to 200 μg
same,plateau or maximum dose of uptake,[5]; up to 200 μg,did not exhibit a plateau or maximum dose of uptake
same,uptake of atezolizumab by megakaryocytes and static generated platelets,[6]; 30 minutes incubation,capable of uptake
same,localization of Atezolizumab in megakaryocytes,[6]; PF4 stain,colocalize with the alpha granule stain PF4

# Counter-ions that a name gives are not always drawn.
